In US12365680B2, “Polymorphs of the hydrochloride salt of linaprazan glurate” (Cinclus Pharma Holding AB (Publ), priority 2021, dated 2025):
Some of these results come from one statement about several compounds together.

Assay: Solubility of Form 1 and Form 2 in media simulating gastric and intestinal fluids (FEDGAS, FaSSIF-V2, FeSSIF-V2)
Assay type: physicochemical
Conditions: for solubility in FEDGAS relative to FaSSIF-V2: FEDGAS mid stage pH 4.5 vs FaSSIF-V2 pH 6.5, 37° C.; for solubility in FEDGAS relative to FeSSIF-V2: FEDGAS mid stage pH 4.5 vs FeSSIF-V2 pH 5.8, 37° C.

Compound	solubility in FEDGAS relative to FaSSIF-V2	solubility in FEDGAS relative to FeSSIF-V2
Cc1cccc(C)c1CNc1cc(C(=O)NCCOC(=O)CCCC(=O)O)cn2c(C)c(C)nc12 [Form 1]	20-25 times	7-8 times
Cc1cccc(C)c1CNc1cc(C(=O)NCCOC(=O)CCCC(=O)O)cn2c(C)c(C)nc12 [Form 2]	20-25 times	7-8 times
